Values are the deposited “Percent Effect”, in %. How 0% and 100% were set is not recorded. Most values in the screen are low, and negative values occur. The compounds are a random part of those screened. Two or more numbers in one place are separate tests of the same structure; such repeats can differ widely.

Mtb cholesterol medium: 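Growth of Mycobacterium tuberculosis over 4 days (cholesterol / DPPC medium with tyloxapol); the read-out is not stated. Tested at 50 µM. Direction is inferred from retests: higher values go with more growth inhibition. About 69,000 compounds were tested under these conditions; 0.54% (about 370) showed 50% or more at least once.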
Mtb glucose medium: 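Growth of Mycobacterium tuberculosis over 3 days (7H9 medium with glucose and tyloxapol); the read-out is not stated. Compounds at 50 µM. Direction is inferred from retests: higher values go with more growth inhibition. Of about 69,000 compounds tested this way, about 760 (1.1%) reached 50% or more in at least one test.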

SMILES	Mtb cholesterol medium	Mtb glucose medium
OCCn1cc(CN2CCN(CCOc3ccccc3)CC2)cn1	-25.39%	-1.494%
CC(Nc1nc2c(cnn2C)c(=O)[nH]1)c1ccc(F)cc1 (stereo not given)	-7.175%	3.43%
Cc1ccc(O)c(CN2CCn3nc(C(=O)N4CCCC4)cc3C2)n1	-9.227%	-12.36%
CCN1CCN(c2ncc(-c3cc(C)no3)c(-c3ccoc3C)n2)CC1	9.634%	39.74%
CCCS(=O)(=O)c1ccc(N2CCC(Cc3ccccc3)CC2)nn1	-9.189%	0.208% and -17.63%
N#CCCN(CC1CCOC1)Cn1ccc(-c2ccccc2)n1 (stereo not given)	-0.2062%	-2.136%
CNC(=O)c1ccc(OC)c(NCc2ncc(-c3cccs3)o2)c1	13.94%	15.3%
CCN1CC(C(=O)NC(C)(C)CNC(=O)OC(C)(C)C)CC1=O (stereo not given)	-4.272%	-3.202%
CCOC(=O)NC(CNC(=O)c1ncccn1)CC(C)C (stereo not given)	7.539%	10.62%
O=C(COCC1CC1)N1CCCC(n2cccn2)C1 (stereo not given)	-12.62%	-16.49%
NC(=O)c1cccc(CCNCc2cnc(-c3cccs3)s2)c1	-11.73%	-35.85%
[H][C@]12CC[C@]([H])(CN(C3Cc4ccccc4C3)C1)N(Cc1nnc(C)o1)C2	5.06%	31.75%
Nc1nnnn1NCc1cccc(Cl)c1Cl	-4.751%	63.32%
CC(C)c1nnc(CN2CCN(CC(O)c3ccccc3)CC2)o1 (stereo not given)	12.74%	-2.46%
COc1cc(C)ccc1OCC(=O)NS(=O)(=O)c1cc(F)ccc1F	13.46%	-1.525% and 26.48%
Cc1nnc(NC(=O)CN2CCc3nn(C)c(=O)cc3C2)s1	-21.71%	4.581%
COCCNC(=O)C(C)n1cc(Br)cn1 (stereo not given)	-20.58%	-31.99%
c1coc(-c2[nH]c3ncccc3c2CN2CCCOCC2)c1	-12.56%	-8.707%
O=C(CC1=CCCCC1)N1CCC(Cn2cc(CCO)nn2)CC1	-11.03%	9.096%
Cn1cc(CCC(=O)N2CCCC(n3cncn3)C2)cn1 (stereo not given)	0.3608%	1.942%
CSCC(=O)N[C@H]1CC[C@H](Nc2nccc(-c3ccncc3)n2)C1	-32.02%	-20%
CCn1nnnc1-c1cccc(NC(=O)COC2CCCC2)c1	-28.38%	-20.56%
COc1cc(C(=O)O)ccc1OCC(=O)NCCc1ccccc1	9.974%	-21.36%
O=C(O)C(F)(F)F.O=C(O)C(F)(F)F.[H][C@@]12COC[C@@H](C(=O)NCc3ccccn3)[C@]1([H])CN(C1CCOCC1)C2	-23.24%	-9.474%
CO[C@H]1CCN(S(=O)(=O)c2cccs2)[C@H]1Cc1cccnc1.O=C(O)C(F)(F)F	-3.019%	8.99%
OC1CN(Cc2cccc(N3CCOCC3)c2)Cc2ccccc21 (stereo not given)	19.12%	0.145%
CCOC(=O)c1n[nH]cc1CN1CCCC(N(C)Cc2ccccc2)C1 (stereo not given)	3.515%	-4.013% and -2.482%
CN1CCc2nc(C3CCCN(C(=O)CC(C)(C)C)C3)ncc2C1 (stereo not given)	-8.075%	-17.95%
Cc1cc(Nc2ccc(F)cn2)cc(C2CCN(Cc3ncc[nH]3)C2)n1 (stereo not given)	6.755% and 2.06%	12.57%
Cn1cc(CN2CCCN(C(=O)c3cc[nH]n3)CC2)cn1	-4.707%	-20.07%
Cc1ccc(-c2n[nH]cc2CNCC2CCS(=O)(=O)C2)o1 (stereo not given)	42.47%	-2.475% and -1.019%
CCn1ccnc1CNC1CC(=O)N(CCc2cccc(Cl)c2)C1 (stereo not given)	6.983%	18.62%
CNC(=O)NCC(CO)Cc1ccccc1OC(F)(F)F (stereo not given)	-6.357%	9.592%
[H][C@@]12CCN(C(C)=O)C[C@]1([H])OCCN(Cc1ccc(OC)cc1)C2=O	13.18%	4.247%
CCn1nc(C)c2ccn(CC(=O)NC3CC3)c(=O)c21	0.2098%	3.096%
CC1c2ncc(Cn3cncn3)n2CCN1C1CCOCC1.O=C(O)C(F)(F)F (stereo not given)	-1.704%	-9.586%
Cc1ccc(N2CCCN(C(=O)CCc3nccs3)CC2)nn1	7.817%	17.99%
COc1ccc(CN(C)CC2(O)CCN(C(=O)c3cccn3C)C2)cc1 (stereo not given)	-17.58%	-38.02%
[H][C@]12CC[C@]([H])(CN(S(=O)(=O)N(C)C)C1)N(Cc1cccc(C#N)c1)C2	-10.41% and -8.58%	18.72%
CC(C)CN1C(=O)CC[C@]12CC[C@@H](NC(=O)NCc1cccnc1)CC2.O=C(O)C(F)(F)F	-7.813%	8.728%
COC(=O)CN(C(=O)c1ccoc1)c1cccc(F)c1	-11.51%	-2.72% and -0.996%
Cc1noc(C(C)N2CCN(Cc3nnc(C4CC4)o3)CC2)n1 (stereo not given)	-12.54%	-21.43%
Cc1c(C2=NS(=O)(=O)N(C)C(C(=O)Nc3ccc(Br)cc3)=C2)cnn1C	-7.637%	-18.74%
CS(=O)(=O)N1CCOCC2(CN(Cc3ccccn3)CCO2)C1.O=C(O)C(F)(F)F.O=C(O)C(F)(F)F (stereo not given)	-2.037%	-2.247% and 12.32%
CC(=O)N1CCC(NCc2cccnc2N(C)Cc2ccccc2)CC1	4.179%	11.42%
Cc1cccnc1CN1CC[C@H](Oc2cccc(F)c2)[C@@](C)(O)C1	1.383%	25.31%
Cc1nc(-c2ccnc(N3CCNCC3)n2)no1.Cl.Cl	6.045%	2.067% and 0.5726%
[H][C@]12CC[C@]([H])(CN(C(=O)COCC)C1)N(Cc1ccccn1)C2=O	-20.21%	-20.76% and -1.83%
[H][C@@]12CCN(C(=O)CCc3ccccc3Cl)C[C@]1([H])OCCNC2=O	-40.42%	-17.68% and -15.09%
Cc1nc(CCNC(=O)NC2CCN(c3ncccn3)CC2)cs1	-18.57%	6.702%
[H][C@]12CC[C@]([H])(CN(C(=O)c3ccccn3)C1)N(C(=O)CCc1cccs1)C2	2.069%	-12.22%
CN1CCCCC12CCN(c1nncs1)CC2.O=C(O)C(F)(F)F	3.388% and -15.92%	-13.67% and -41.62%
O=C(O)C(F)(F)F.O=C(O)C(F)(F)F.O=c1ccc2c(n1Cc1cccnc1)CCN(C1CCOC1)CC2 (stereo not given)	-3.629%	11.37% and 6.995%
COc1ncc(NCc2cc(C#N)cs2)cc1C(N)=O	-8.601%	4.15%
CCN(CC)S(=O)(=O)N1CCCN(CC(=O)NC(C)C)CC1	-26.21%	-39.39%
CCN(CC)S(=O)(=O)c1ccc(C(=O)NC(C)(C#N)C2CC2)cc1 (stereo not given)	-13.64%	-20.26%
Cl.c1nc(N2CCOCC2)ncc1-c1cncn1CCCN1CCCCC1	-6.845% and 1.458%	-37.78%
CN(CC(=O)N1CCC(Oc2ccccc2)CC1)c1cnccn1	11.97%	15.88%

Measurements from “University of Dundee, Small-Polar-MMV Screening Library” (2021), ChEMBL document CHEMBL3988442.